Values of other authors, collected in patent US8877445B2, “Methods for identification of tumor phenotype and treatment” (Intelligent Oncotherapeutics, Inc., priority 2008, dated 2014).
Some results were stated once for a whole list of compounds, not compound by compound. For at least one compound, name, drawing or mass did not settle the structure. Some ranges recur; such a range may be that of the whole group of compounds.

Test system: patients
Conditions: clinical phase I trial; stated jointly for the listed drugs

| Compound | disease stabilization |
| --- | --- |
| Cc1cc(Nc2ncc(F)c(NC3C4C=CC(C4)C3C(N)=O)n2)ccc1N1CCN(C)CC1 (stereo not drawn) [AS703569] | 20-40 % of patients |
| O=C(O)c1ccc(Nc2ncc3c(n2)-c2ccc(Cl)cc2C(c2c(F)cccc2F)=NC3)cc1 [MLN8054] | 20-40 % of patients |
| CC(=O)NCC(=O)N1[C@@H]2CC[C@H]1c1ccc(Nc3ncc(C(F)(F)F)c(NC4CCC4)n3)cc12 [PF-03814735] | 20-40 % of patients |
| CO[C@@H](C(=O)N1Cc2n[nH]c(NC(=O)c3ccc(N4CCN(C)CC4)cc3)c2C1)c1ccccc1 [PHA-739358] | 20-40 % of patients |
| O=C(Nc1cccc(Cl)c1)Nc1ncc(CCNc2ncnc3ccsc23)s1 [SNS-314] | 20-40 % of patients |
| COc1cc2c(Nc3ccc(NC(=O)c4ccccc4)cc3)ncnc2cc1OCCCN1CCOCC1 [ZM 447439] | 20-40 % of patients |
